Source: patent EP0150892A2, “Substituted alkylidene imidazoles” (G.D. Searle & Co., priority 1984, dated 1985)
At least one structure is not confirmed: it was looked up by name or label, or the drawing left a doubt.

Molecular target: T1, thromboxane synthetase (Cavia porcellus, UniProt H0UT36)
T1 construct: from tissue; host or cells: citrated whole blood (platelets) of albino male Dunkin-Hartley guinea pigs (printed 'Dunkin-Bartley') dosed orally
T1 sequence (H0UT36 1-533): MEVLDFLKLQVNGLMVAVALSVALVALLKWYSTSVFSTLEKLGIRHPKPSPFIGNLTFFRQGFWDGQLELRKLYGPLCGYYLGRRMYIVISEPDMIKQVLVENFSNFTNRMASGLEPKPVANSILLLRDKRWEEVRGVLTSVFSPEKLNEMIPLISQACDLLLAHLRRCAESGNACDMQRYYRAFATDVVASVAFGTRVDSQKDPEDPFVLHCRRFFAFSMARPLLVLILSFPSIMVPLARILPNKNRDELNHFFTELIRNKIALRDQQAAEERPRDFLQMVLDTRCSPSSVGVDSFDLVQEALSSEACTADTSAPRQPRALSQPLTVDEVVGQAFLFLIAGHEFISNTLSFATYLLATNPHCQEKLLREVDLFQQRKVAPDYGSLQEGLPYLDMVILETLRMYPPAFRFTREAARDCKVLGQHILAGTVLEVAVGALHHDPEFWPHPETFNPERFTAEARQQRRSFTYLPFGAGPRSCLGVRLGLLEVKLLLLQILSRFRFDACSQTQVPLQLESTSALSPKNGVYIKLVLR
Experiment: Whole blood aggregation and thromboxane formation in vivo: guinea pig (plasma TXB2 by radioimmunoassay after oral dosing)
Details: plasma TXB2 in collagen-stimulated citrated whole blood of guinea pigs dosed orally, versus vehicle controls; normalized to platelet count; dose not given

## CCOC(=O)c1ccc(/C=C(/COCc2ccc(OC)cc2)Cn2ccnc2)c(Cl)c1 [10 (E-isomer), ethyl 3-chloro-4-[3-(1H-imidazol-1-yl)-2-[[(4-methoxyphenyl]methoxy]methyl]-1-E-propenyl]benzoate]
  % INHIBITION: -18.6%
